Assay results reported in PubChem BioAssay AID1487 (National Center for Advancing Translational Sciences (NCATS), 2009).
Some of the results follow. The main result of the screen is listed elsewhere. These columns were measured beside it and carry no call. The list favours compounds with an active or inconclusive main result. Words in brackets tell the shape of the fitted curve; partial curves, single points and poor fits give uncertain potencies.

Experiment: qHTS Assay for Modulators of Lamin A Splicing
Settings: HeLa LMNA splicing GFP/RFP minigene ratio, 48 h
Method in brief: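 S3 HeLa cells stably expressing lamin A-EGFP splicing minigene plus DsRed2, 600 cells/well, 48 h compound exposure at 37C. Laser-scanning cytometry; analysed as GFP (500-530 nm)/RFP (575-640 nm) total intensity ratio; 0.5% DMSO vehicle.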

[1] = measured here: RFP viability control channel
[2] = measured here: GFP splicing reporter channel

| SMILES | AC50 [1] | AC50 [2] |
| --- | --- | --- |
| COc1ccc(-c2nn(-c3ccccc3)cc2/C=N/NC(=S)NC(C)C)cc1OC | 5.01 µM [rising, full curve, poor fit] |  |
| CCN1CCN(c2nc(Nc3ccc(C)c(C)c3)nc(N)c2[N+](=O)[O-])CC1 | 0.0562 µM [rising, partial curve, poor fit] | 0.02 µM [rising, full curve, poor fit] |
| C#CCN1C(C)=C(C(=O)OC)C(c2cccc([N+](=O)[O-])c2)C(C(=O)OCC)=C1C (centres undefined) | 0.00224 µM [falling, full curve, poor fit] |  |
| COCCNC(=O)C12CC3CC(C1)CC(c1ccccc1)(C3)C2 | 0.0178 µM [falling, full curve, poor fit] |  |
| O=C(NCCCN1CCOCC1)c1cc(-c2cccs2)on1 | 31.6 µM [falling, single point] | 35.5 µM [falling, single point] |
| CC(=O)Nc1cc(O)cc(O)c1 | 1.26 µM [falling, partial curve] |  |
| CCOc1cc(CNC(C)(C)C)ccc1OCC(=O)Nc1cccc(C(F)(F)F)c1 | 25.1 µM [rising, partial curve, poor fit] |  |
| CCc1nnc(NS(=O)(=O)c2ccc(NC(=S)NC(=O)/C=C/c3ccc(OC)cc3)cc2)s1 | 4.47 µM [falling, single point] | 5.62 µM [falling, single point] |
| CC1CCCc2sc3nc(NCc4ccco4)n4ncnc4c3c21 (centres undefined) | 35.5 µM [rising, single point] | 35.5 µM [rising, single point] |
| COc1ccc2oc(=O)c(-c3cn4c(n3)sc3cc(OC)ccc34)cc2c1 |  | 0.282 µM [falling, partial curve] |
| CN(C)c1ccc(N=Cc2ccco2)cc1 |  | 12.6 µM [rising, partial curve, poor fit] |
| Cc1ccc(C(=O)NCCNC(=O)c2ccccc2)cc1 | 8.91 µM [falling, partial curve, poor fit] | 0.0398 µM [falling, full curve, poor fit] |
| Cc1ccsc1/C=N/Nc1nc(=O)[nH]nc1C |  | 35.5 µM [falling, single point] |
| Cc1ccccc1-c1n[nH]c(=S)n1/N=C/c1c(C)nn(-c2ccccc2)c1C | 12.6 µM [rising, partial curve] |  |
| Cc1noc(C)c1-c1nc(NCc2ccccc2)c2ccccc2n1 | 12.6 µM [falling, single point] | 11.2 µM [falling, partial curve] |
| O=C(NCC(c1ccc2c(c1)OCO2)N1CCOCC1)C(=O)Nc1ccc(F)cc1F (centres undefined) |  | 0.891 µM [falling, full curve] |
| CSc1nc(Cc2ccccc2)nc2ccccc12 |  | 6.31 µM [rising, single point] |
| COc1ccc(N(Cc2cccs2)C(=O)c2ccc(C(C)(C)C)cc2)cc1 | 35.5 µM [rising, single point] | 17.8 µM [rising, partial curve, poor fit] |

| SMILES | AC50 [1] | AC50 [2] |
| --- | --- | --- |
| FC(F)(F)c1ccccc1-c1nc(Nc2ccncc2)c2ccccc2n1 |  | 20 µM [falling, partial curve] |
| CCNC(=S)NNC(=O)c1cc(-c2cccc(C)c2)nc2ccccc12 | 15.8 µM [rising, partial curve] | 8.91 µM [rising, partial curve] |
| O=C(CNC(=O)c1ccc(Cl)cc1)N/N=C/C=C/c1ccccc1 | 0.0794 µM [rising, full curve, poor fit] |  |
| O=C(Cn1cnc2c(oc3ccccc32)c1=O)Nc1ccc(OC(F)(F)F)cc1 | 1 µM [rising, full curve] | 0.355 µM [rising, full curve] |
| Cc1[nH]n(-c2ccccc2)c(=O)c1/C=N/NC(=O)c1ccoc1C | 7.08 µM [rising, full curve, poor fit] | 6.31 µM [rising, full curve, poor fit] |
| COc1ccccc1CNC(=O)Cc1csc2nc(-c3ccccc3)cn12 |  | 6.31 µM [falling, single point] |
| CCc1ccc(C(=O)NC(=S)Nc2ccc3c(c2)OCCO3)cc1 | 35.5 µM [rising, single point] |  |
| O=C(COC(=O)c1cc([N+](=O)[O-])ccc1NCCO)c1ccc(Cl)cc1 | 22.4 µM [rising, single point] |  |
| COc1ccc(OC)c(NC(=O)[C@@H]2CCCN2C(=O)c2cccs2)c1 | 5.62 µM [rising, single point] |  |
| O=C(CCC1N=C2c3ccccc3N=C(SCc3ccccc3F)N2C1=O)NCCc1ccccc1 (centres undefined) | 6.31 µM [falling, single point] |  |
| CN(c1ccccc1)S(=O)(=O)c1cccc(NC(=O)CSc2nnc(N)s2)c1 | 12.6 µM [rising, partial curve] |  |
| O=C(O)c1cn(-c2ccc(F)cc2)c(=O)c2ccccc12 |  | 0.178 µM [falling, full curve, poor fit] |
| COc1cccc(-c2ccc3ncnc(NCc4cnc(C)cn4)c3c2)c1 | 7.08 µM [falling, partial curve] | 8.91 µM [falling, partial curve] |
| CC1CCC(C(C)C)C(OC(=O)Cn2c(-c3ccc(Br)cc3)[n+](C)c3ccccc32)C1 (centres undefined) | 35.5 µM [falling, single point] | 25.1 µM [falling, partial curve, poor fit] |
| Cc1oc(CC(C)C)cc1C(=O)Nc1cccc2ccccc12 | 35.5 µM [falling, single point] | 35.5 µM [falling, single point] |
| CCCCNC(=O)C1CC(c2c(Cl)cccc2Cl)=NO1 (centres undefined) | 17.8 µM [rising, single point] |  |
| COc1ccc(C)cc1NC(=O)CSc1nnc(COc2ccccc2)n1Cc1ccco1 | 22.4 µM [rising, single point] | 20 µM [rising, single point] |

A different layout for some results above.
O=C(COC(=O)c1cc([N+](=O)[O-])ccc1NCCO)c1ccc(Cl)cc1
  AC50 [1]: 22.4 µM [rising, single point]
O=C(O)c1cn(-c2ccc(F)cc2)c(=O)c2ccccc12
  AC50 [2]: 0.178 µM [falling, full curve, poor fit]
